In publication PMC12767095:
No constants are given. Whether binding was seen depends on the method and setting. In cells and extracts the contact can be indirect. A yes stands for co-enrichment or nearness to the bait. Other partners may have been found.

Sequences of proteins named here, by UniProt entry; tags and fusion partners are left off.
UniProt Q04206: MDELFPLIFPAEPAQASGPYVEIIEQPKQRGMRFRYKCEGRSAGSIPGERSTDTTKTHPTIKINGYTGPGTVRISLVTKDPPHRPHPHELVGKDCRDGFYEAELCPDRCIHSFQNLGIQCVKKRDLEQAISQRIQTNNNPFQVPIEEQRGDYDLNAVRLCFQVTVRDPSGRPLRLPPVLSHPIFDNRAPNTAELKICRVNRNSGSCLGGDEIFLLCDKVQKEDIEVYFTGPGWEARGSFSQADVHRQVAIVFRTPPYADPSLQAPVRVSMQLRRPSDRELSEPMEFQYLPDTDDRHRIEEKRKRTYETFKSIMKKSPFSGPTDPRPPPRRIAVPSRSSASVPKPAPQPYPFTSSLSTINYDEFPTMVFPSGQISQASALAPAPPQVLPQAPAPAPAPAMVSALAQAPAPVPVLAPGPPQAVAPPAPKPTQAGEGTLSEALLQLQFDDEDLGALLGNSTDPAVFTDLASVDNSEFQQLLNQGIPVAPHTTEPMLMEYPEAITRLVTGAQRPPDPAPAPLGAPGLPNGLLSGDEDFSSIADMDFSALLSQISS
UniProt Q7Z6E9: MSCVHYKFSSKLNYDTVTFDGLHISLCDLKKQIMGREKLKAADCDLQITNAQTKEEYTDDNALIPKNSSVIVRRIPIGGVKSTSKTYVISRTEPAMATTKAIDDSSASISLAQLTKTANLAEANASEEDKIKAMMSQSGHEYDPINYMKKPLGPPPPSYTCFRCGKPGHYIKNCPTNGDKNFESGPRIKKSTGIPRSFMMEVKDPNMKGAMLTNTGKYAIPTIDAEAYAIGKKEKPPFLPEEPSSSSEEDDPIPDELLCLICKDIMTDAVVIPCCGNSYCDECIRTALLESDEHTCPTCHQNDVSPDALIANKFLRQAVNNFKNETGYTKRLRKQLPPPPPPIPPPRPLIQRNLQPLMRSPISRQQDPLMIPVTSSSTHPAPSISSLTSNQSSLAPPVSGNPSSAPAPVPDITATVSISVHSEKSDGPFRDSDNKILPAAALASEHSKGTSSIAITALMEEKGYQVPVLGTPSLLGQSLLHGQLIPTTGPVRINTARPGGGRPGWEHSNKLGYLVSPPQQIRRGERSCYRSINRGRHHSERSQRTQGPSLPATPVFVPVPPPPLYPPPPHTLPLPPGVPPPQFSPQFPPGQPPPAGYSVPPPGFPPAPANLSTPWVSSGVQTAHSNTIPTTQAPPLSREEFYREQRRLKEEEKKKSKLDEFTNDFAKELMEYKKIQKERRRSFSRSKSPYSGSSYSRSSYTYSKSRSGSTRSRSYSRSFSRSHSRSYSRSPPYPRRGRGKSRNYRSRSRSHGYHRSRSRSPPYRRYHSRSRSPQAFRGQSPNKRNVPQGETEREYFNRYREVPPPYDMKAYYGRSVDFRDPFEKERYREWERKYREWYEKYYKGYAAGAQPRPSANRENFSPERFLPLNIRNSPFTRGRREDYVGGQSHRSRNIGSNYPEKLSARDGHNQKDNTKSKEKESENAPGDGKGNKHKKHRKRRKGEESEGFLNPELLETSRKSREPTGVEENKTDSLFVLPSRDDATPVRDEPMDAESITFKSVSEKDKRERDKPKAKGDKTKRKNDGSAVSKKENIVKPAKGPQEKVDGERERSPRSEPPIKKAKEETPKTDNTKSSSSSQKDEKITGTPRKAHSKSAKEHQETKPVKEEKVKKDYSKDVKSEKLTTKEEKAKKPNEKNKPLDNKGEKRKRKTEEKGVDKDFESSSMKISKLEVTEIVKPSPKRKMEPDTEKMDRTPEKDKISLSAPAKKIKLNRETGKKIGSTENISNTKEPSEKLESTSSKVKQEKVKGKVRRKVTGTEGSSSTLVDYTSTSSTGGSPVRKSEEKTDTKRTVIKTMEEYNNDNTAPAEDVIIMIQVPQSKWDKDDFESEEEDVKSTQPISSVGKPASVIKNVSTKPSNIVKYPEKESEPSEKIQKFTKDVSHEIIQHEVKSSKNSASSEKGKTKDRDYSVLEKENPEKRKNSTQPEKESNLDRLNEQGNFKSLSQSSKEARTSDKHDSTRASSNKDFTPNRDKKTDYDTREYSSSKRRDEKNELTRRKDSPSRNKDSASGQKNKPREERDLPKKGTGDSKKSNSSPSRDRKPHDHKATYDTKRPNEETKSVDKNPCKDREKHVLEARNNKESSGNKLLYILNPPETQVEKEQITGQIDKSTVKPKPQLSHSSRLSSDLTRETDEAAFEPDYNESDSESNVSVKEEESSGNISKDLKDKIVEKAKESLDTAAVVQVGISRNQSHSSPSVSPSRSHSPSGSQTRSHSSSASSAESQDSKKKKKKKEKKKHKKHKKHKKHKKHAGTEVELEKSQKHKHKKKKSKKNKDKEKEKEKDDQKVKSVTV
UniProt Q93008: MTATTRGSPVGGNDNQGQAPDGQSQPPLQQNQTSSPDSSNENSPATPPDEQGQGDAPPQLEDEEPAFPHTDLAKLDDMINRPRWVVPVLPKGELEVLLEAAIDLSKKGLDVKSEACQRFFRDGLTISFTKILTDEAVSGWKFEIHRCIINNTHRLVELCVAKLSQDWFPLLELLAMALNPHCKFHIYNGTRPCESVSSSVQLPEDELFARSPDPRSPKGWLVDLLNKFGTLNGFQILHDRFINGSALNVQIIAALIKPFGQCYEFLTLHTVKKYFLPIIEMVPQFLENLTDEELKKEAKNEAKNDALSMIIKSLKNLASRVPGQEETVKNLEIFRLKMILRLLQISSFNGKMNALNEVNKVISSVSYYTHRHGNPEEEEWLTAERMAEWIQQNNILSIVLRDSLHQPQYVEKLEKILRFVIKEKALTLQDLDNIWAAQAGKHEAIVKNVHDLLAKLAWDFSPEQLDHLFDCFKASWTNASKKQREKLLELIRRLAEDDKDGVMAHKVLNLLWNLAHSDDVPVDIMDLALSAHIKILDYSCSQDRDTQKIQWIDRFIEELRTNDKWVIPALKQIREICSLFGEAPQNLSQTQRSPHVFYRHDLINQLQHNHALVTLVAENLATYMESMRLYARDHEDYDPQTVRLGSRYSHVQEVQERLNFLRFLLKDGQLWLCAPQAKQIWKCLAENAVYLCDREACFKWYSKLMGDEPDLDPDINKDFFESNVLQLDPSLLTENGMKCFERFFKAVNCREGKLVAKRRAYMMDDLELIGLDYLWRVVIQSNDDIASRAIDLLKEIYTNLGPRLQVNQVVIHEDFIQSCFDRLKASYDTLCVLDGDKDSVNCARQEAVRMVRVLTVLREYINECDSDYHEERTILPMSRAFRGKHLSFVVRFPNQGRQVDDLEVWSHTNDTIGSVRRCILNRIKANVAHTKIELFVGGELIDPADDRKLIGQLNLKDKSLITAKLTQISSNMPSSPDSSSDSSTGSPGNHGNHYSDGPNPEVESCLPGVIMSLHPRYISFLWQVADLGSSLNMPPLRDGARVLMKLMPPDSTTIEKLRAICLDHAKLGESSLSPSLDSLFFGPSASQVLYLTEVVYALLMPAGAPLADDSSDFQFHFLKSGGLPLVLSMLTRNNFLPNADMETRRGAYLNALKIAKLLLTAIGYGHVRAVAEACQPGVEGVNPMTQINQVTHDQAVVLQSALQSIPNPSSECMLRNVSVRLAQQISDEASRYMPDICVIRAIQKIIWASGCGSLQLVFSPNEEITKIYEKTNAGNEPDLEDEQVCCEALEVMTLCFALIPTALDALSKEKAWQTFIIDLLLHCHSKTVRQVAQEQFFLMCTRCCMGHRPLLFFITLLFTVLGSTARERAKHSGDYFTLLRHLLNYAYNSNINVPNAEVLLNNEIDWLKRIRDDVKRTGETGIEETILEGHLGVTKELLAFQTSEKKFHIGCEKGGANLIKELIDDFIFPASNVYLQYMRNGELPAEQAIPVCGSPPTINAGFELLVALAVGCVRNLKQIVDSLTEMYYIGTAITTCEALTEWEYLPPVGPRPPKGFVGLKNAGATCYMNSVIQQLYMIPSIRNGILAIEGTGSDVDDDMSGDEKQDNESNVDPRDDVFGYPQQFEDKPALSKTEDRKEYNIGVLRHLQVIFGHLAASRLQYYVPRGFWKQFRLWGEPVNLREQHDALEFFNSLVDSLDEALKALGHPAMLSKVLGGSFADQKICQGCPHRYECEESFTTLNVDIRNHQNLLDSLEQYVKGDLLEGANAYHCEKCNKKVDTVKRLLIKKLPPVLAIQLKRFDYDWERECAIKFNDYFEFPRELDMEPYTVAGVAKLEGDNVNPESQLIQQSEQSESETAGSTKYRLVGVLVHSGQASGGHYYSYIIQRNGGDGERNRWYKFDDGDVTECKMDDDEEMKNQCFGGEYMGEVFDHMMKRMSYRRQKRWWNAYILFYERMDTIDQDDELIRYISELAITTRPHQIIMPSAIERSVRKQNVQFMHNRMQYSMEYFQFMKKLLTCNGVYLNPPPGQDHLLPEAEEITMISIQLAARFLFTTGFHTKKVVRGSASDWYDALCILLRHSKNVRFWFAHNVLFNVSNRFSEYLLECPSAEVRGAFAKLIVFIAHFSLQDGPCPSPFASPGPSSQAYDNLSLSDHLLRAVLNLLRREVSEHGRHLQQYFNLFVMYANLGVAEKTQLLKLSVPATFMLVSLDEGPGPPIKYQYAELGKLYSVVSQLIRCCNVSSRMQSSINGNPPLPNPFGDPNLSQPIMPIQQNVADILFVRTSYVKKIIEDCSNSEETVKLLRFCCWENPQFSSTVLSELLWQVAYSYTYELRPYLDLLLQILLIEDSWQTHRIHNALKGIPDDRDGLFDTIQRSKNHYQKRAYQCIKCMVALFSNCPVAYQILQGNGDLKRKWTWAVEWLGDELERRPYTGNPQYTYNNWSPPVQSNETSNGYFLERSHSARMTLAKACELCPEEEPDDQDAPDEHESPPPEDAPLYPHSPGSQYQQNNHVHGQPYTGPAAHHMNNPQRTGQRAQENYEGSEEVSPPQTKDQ

Molecular target: RELA (human (endogenous in TFE301-1)) (UniProt Q04206)
Assay: affinity purification with mass spectrometry; IP of RELA from TFE301-1 cells with an anti-RELA antibody, compared with an IgG control; MS on a Q-Exactive

binding | Substance
binds | HERC2 (from UniProt O95714 1-4834) (enzyme)
binds | RBBP6 (from UniProt Q7Z6E9 1-1792) (enzyme)
binds | UBR5 (from UniProt O95071 1-2799) (enzyme)
binds | USP9X (from UniProt Q93008 1-2554) (enzyme)
